Measured values: patent US8779154B2, “Fused ring compounds for inflammation and immune-related uses” (priority 2006, dated 2014)
Some of these results come from one statement about several compounds together.

System: IL-2 production
Experiment: Inhibition of IL-2 production in PHA-activated Jurkat cells (ELISA)
Format: cell-based
Conditions: PHA 2.5 μg/mL, 20 hours, IL-2 ELISA
Procedure: Jurkat cells were placed in a 96 well plate (0.5 million cells per well in 1% FBS medium) then a test compound of this invention was added at different concentrations. After 10 minutes, the cells were activated with PHA (final concentration 2.5 μg/mL) and incubated for 20 hours at 37° C. under CO2. The final volume was 200 μL. Following incubation, the cells were centrifuged and the supernatants collected and stored at −70° C. prior to assaying for IL-2 production. A commercial ELISA kit (IL-2 Eli-pair, Diaclone Research, Besancon, France) was used to detect production of IL-2, from which dose response curves were obtained. The IC50 value was calculated as the concentration at which 50% of maximum IL-2 production after stimulation was inhibited versus a non-stimulation control.

Row | SMILES | IC50
1 | O=C(Nc1ncc2c(n1)CCCc1cnc(-c3cccnc3)nc1-2)c1c(F)cccc1F [Compound 90] | > 1 µM
2 | O=C(Nc1c(F)cccc1F)c1nc2c(s1)-c1cc(-c3cccnc3)ccc1CCC2 [Compound 114] | ≤ 0.03 µM
3 | COc1ccc2c(c1)-c1sc(C(=N)Nc3c(F)cccc3F)nc1CCC2 [Compound 151] | > 1 µM
